PubChem BioAssay AID1259254 | NCATS | 2017
This is a random part of about 59,000 reagents tested. About 1,550 of them (2.6%) count as active. 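G2 share is only a proxy for re-replication; each gene was hit by three separate siRNAs, and active genes were retested.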 Reagents against one gene are numbered here. Further read-outs or replicates are left out here. Not given: the amount of reagent.

- Test: 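Gene knock-downs that lead to re-replication, shown by excess G2 DNA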 (primary screen)
- System: human HCT116 colorectal cancer cells
- Reagent: single siRNA against human genes
- Duration: 3 days
- Detection: 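Nuclei stained with Hoechst and imaged; cell-cycle phase assigned by DNA content; G2 share scaled per plate, non-targeting siRNA 0%, GMNN siRNA 100%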
- Scale: G2 robust z-score: higher = more G2 cells, more excess DNA replication
- Call rule: 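An siRNA counts as active if its G2 robust z-score lies at least 5 MADs above the screen median; here such calls match roughly 38% of GMNN control or more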

JCHAIN #1: G2 robust z-score = 1.27; Call = inactive
JCHAIN #2: G2 robust z-score = -1.13; Call = inactive
JCHAIN #3: G2 robust z-score = -0.389; Call = inactive
SLPI #1: G2 robust z-score = -0.591; Call = inactive
SLPI #2: G2 robust z-score = 2.24; Call = inactive
SLPI #3: G2 robust z-score = -0.385; Call = inactive
RNF185 #1: G2 robust z-score = -0.287; Call = inactive
RNF185 #2: G2 robust z-score = -0.141; Call = inactive
RNF185 #3: G2 robust z-score = -0.72; Call = inactive
ENPP2 #1: G2 robust z-score = -0.468; Call = inactive
ENPP2 #2: G2 robust z-score = -1.26; Call = inactive
ENPP2 #3: G2 robust z-score = 0.916; Call = inactive
LOC730020 (retired record) #1: G2 robust z-score = -0.561; Call = inactive
LOC730020 (retired record) #2: G2 robust z-score = -0.13; Call = inactive
LOC730020 (retired record) #3: G2 robust z-score = -0.799; Call = inactive
ADGRE3 #1: G2 robust z-score = -0.088; Call = inactive
ADGRE3 #2: G2 robust z-score = 0.328; Call = inactive
ADGRE3 #3: G2 robust z-score = -0.529; Call = inactive
CT83 #1: G2 robust z-score = 0.0632; Call = inactive
CT83 #2: G2 robust z-score = -0.0813; Call = inactive
CT83 #3: G2 robust z-score = -0.446; Call = inactive
IGBP1C #1: G2 robust z-score = -0.614; Call = inactive
IGBP1C #2: G2 robust z-score = 1.03; Call = inactive
IGBP1C #3: G2 robust z-score = -0.34; Call = inactive

A few values from the list.
Entry of JCHAIN #1 in “G2 robust z-score”: 1.27
Under “G2 robust z-score”, IGBP1C #1 is entered as -0.614
